Values of other authors in US20080131503A1 (priority 2005, published 2008).

Experiments:
[1] = at pH>6
[2] = test system: plasma lipids (total-C, LDL-C, triglycerides, HDL)
[3] = evening drug administration compared with morning

CC(C)c1c(C(=O)Nc2ccccc2)c(-c2ccccc2)c(-c2ccc(F)cc2)n1CC[C@@H](O)C[C@@H](O)CC(=O)O [Atorvastatin]
Hydroxy acid form - lactone form equilibrium [1]: greatly favors the hydroxy acid form | Plasma concentration lower, AUC [3]: approximately 30% | Plasma concentration lower, Cmax [3]: approximately 30% | Decrease of extent of drug absorption by food, as assessed by AUC (with food): ~9% | Decrease of rate of drug absorption by food, as assessed by Cmax (with food): approximately 25% | LDL-C reduction by time of day of drug administration ([2]; evening versus morning administration): the same | LDL-C reduction given with or without food ([2]; with or without food): similar
